Data from patent US4885299A, “2-(2,3-dihydro-2-oxo-3-benzofuranyl)acetic acids antihypoxic and nootropic effects having” (ADIR Et Cie, priority 1987, dated 1989).
Where a name gives a salt, the structure may show the parent alone. The name of at least one read-out is uncertain.

Test system: Acute hypoxia in mice; survival of the brain
Test: Acute hypoxia in mice (hypobaric); brain survival time to final respiratory gasp
Format: in vivo, Male CD1 mice (Charles River)
Settings: 100 mg/kg I.P., 30 minutes before hypoxia
Procedure: The compounds of the present invention were tested in respect of their capacity to prolong the survival of cerebral tissue during acute hypoxia in mice, or to maintain the level of tissue energy-rich compounds in rats subjected to a fall in the oxygen supply [Pharmacology of Cerebral Ischemia, p. 334-339 (1968) Elsevier Science Publishers B.V., J. Krieglstein ed.]. […] Forsch. Drug. Res. (1986), 36 II No. 9, p. 1314-1320].
The survival of the brain is assessed by measuring the time at which the final respiratory gasp is observed.
The survival time of a treated batch is compared with that of a control batch receiving only the solvent.
The percentage increase in the survival time after the animals are treated with the compounds of the invention is shown in Table II.

CCN(CC)CCN(C)C(=O)CC1(c2ccccc2)C(=O)Oc2ccc(Cl)cc21.Cl (stereo not drawn) [Example 12, N-Methyl-N-diethylaminoethyl-2-(5-chloro-2,3-dihydro-2-oxo-3-phenyl-3-benzofuranyl)acetamide hydrochloride]
Percentage increase in the survival time (listed as Ex. 12, hydrochloride): +185%

O=C(CC1(c2ccccc2)C(=O)Oc2ccc(Cl)cc21)N1CCN(CCO)CC1 (stereo not drawn) [Example 15, 2-(5-Chloro-2,3-dihydro-2-oxo-3-phenyl-3-benzofuranyl)-1-[4-(2-hydroxyethyl)piperazinyl]-1-oxoethane hydrochloride]
Percentage increase in the survival time (listed as Ex. 15, hydrochloride): +139%

Cc1cccc(N2CCN(C(=O)CC3C(=O)Oc4ccc(Cl)cc43)CC2)c1 (stereo not drawn) [Example 26, 2-(5-Chloro-2,3-dihydro-2-oxo-3-benzofuranyl)-1-[4-(3-methylphenyl)piperazinyl]-1-oxoethane hydrochloride]
Percentage increase in the survival time (listed as Ex. 26, hydrochloride): +135%
